Measurements reported in PubChem BioAssay AID1347076 (National Center for Advancing Translational Sciences (NCATS), 2019).
Among all 400,000 compounds or so, about 13,000 (3.2%) were called active. Inconclusive results, whose numbers are uncertain, are shown with a selection of clear calls. The call rests on the fitted dose curve; in most records, active means well fitted cell-killing curve with a large enough effect; inconclusive means small, poorly fitted or top-dose-only effect, or effect the other way; inactive means flat fitted curve, though single readings scatter. Potencies of inconclusive entries are doubtful fits and often do not repeat.

Experiment: qHTS assay for MDR1-selective chemotherapeutics: Primary screen using the drug-selected MDR subline cells KB-V1; further: nearly all actives have a fitted effect of over 60% in size
Details: KB-V1 MDR cells viability, CellTiter-Glo, 72 h; series mostly up to 46.1 µM
In short: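 Readout: CellTiter-Glo luminescence, 10 min after addition. Cells: KB-V1 MDR subline, 72 h at 37 degrees C with compound. Analysis: corrected, normalized data fitted to concentration-effect curves.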
Potency means the concentration at half of the fitted maximal effect.

SMILES	Potency
Cc1ccc(NC(=O)c2ccccc2-c2ccccc2C(=O)O)cc1	inconclusive: 29.1 µM [rising, single point]
O=C(Cc1cccs1)Nc1cccc(-c2nc3cc4ccccc4cc3[nH]2)c1	inconclusive: 29.1 µM [cytotoxic, single point]
S=C1NCc2cncnc2N1	inactive
CCOC(=O)C1=C(N)n2c(s/c(=C\c3cccs3)c2=O)=C(C(=O)OCC)C1c1cccs1 (configuration not stated)	active: 13 µM
O=C(CCc1nc2ccccc2c(=O)[nH]1)Nc1nnc(SCc2ccccc2)s1	inactive
COc1ccccc1NC(=O)Cn1nnc(-c2ccccc2NS(=O)(=O)c2ccccc2)n1	active: 5.8 µM
O=C(Nc1ccc2c3c(cccc13)CC2)c1ccc(Br)o1	inconclusive: 14.6 µM [cytotoxic, partial curve]
FC(F)Oc1ccc(-c2csc(NNC3=NCCCCC3)n2)cc1	inactive
COc1cc2ccnc(C=NO)c2cc1OC	inconclusive: 29.1 µM [cytotoxic, single point]
CCC(=O)N1c2ccc(S(=O)(=O)NCc3cccc(OC)c3)cc2CC1C (configuration not stated)	inactive
CCNc1nc(CN2CCCCC2)nc2scc(-c3ccccc3)c12	inconclusive: 9.2 µM [cytotoxic, partial curve]
O=C(CSc1nc(-c2ccccc2)nc2c1CCCC2)c1ccc(F)cc1	inactive
Cc1nc2ccccc2n1CC(O)COc1ccc(C(=O)O)cc1 (configuration not stated)	inactive
COc1cccc(NC(=O)CN(C)CC(=O)Nc2ccc(Br)cc2)c1	inconclusive: 9.2 µM [cytotoxic, partial curve, poor fit]
CN(CC(=O)Nc1ccccc1Oc1ccccc1)Cc1ccccc1F	inconclusive: 29.1 µM [cytotoxic, single point]
CCCCN(CC)CCNC(=O)c1cc2c(-c3ccc(Cl)cc3)nn(C)c2s1	active: 23.1 µM
COc1ccc(-c2ccc(CN3C(CC(C)C)C(=O)N(Cc4cn(Cc5ccco5)nn4)CCS3(=O)=O)cc2)cc1 (configuration not stated)	inconclusive: 29.1 µM [cytotoxic, single point]
O=C(CN1CCC(NC(=O)c2ccccc2)CC1)NCc1ccccc1F	inactive
O=C(Cc1ccccc1)N/N=C/c1ccc2cccc(O)c2n1	inconclusive: 9.2 µM [cytotoxic, partial curve]
O=C(CCCc1ccccc1)N1CCN(c2ccc([N+](=O)[O-])cc2)CC1	active: 16.4 µM
COc1ccc(Cl)cc1C=CC=NNC(=O)c1ccncc1	inconclusive: 29.1 µM [cytotoxic, single point]
CCOC(=O)Cn1c(=O)n(C2CCCCC2)c2nc(-c3ccccc3Cl)nc(C(N)=O)c21	inconclusive: 2.59 µM [cytotoxic, full curve]

Some of the entries so far, with each value named:
COc1cc2ccnc(C=NO)c2cc1OC
  Potency: inconclusive: 29.1 µM [cytotoxic, single point]
CCC(=O)N1c2ccc(S(=O)(=O)NCc3cccc(OC)c3)cc2CC1C (configuration not stated)
  Potency: inactive
